Measured values: patent publication US5114843A, “Humoral hypercalcemic factor antagonists” (Merck & Co., Inc., priority 1991, dated 1992)
Part of at least one peptide drawing is inferred or uncertain, most often the ends.

Test system: rat osteosarcoma cell line, ROS 17/2.8
Assay: inhibition of cAMP stimulation in ROS 17/2.8 cells
Type: cell-based
Details: inhibition of cAMP stimulation by 1nM [Nle8,18,Tyr34]bPTH(1-34)NH2, read-out: Binding KI

Q: How did the Ki turn out when `CC[C@H](C)[C@H](NC(=O)[C@H](CC(C)C)NC(=O)[C@H](Cc1c[nH]cn1)NC(=O)[C@H](Cc1c[nH]cn1)NC(=O)[C@H](CC(C)C)NC(=O)[C@H](Cc1ccccc1)NC(=O)[C@H](Cc1ccccc1)NC(=O)[C@H](CCCNC(=N)N)NC(=O)[C@H](CCCNC(=N)N)NC(=O)[C@H](CCCNC(=N)N)NC(=O)[C@H](CC(C)C)NC(=O)[C@H](CC(=O)O)NC(=O)[C@H](CCC(N)=O)NC(=O)[C@@H](NC(=O)[C@@H](N)CO)[C@@H](C)CC)C(=O)N[C@@H](C)C(=O)N[C@@H](CCC(=O)O)C(=O)N[C@H](C(=O)N[C@@H](Cc1c[nH]cn1)C(=O)N[C@H](C(=O)N[C@@H](C)C(N)=O)[C@@H](C)O)[C@@H](C)CC` [hHCF(14-34)NH2] was run?
A: Its Ki is 2040 ± 160 nM.
